# Data from the supplement of paper PMC3334620.
# In all, about 33,000 sequences were measured (“E-score (-0.5 to 0.5)”: median about -0.0059, highest 2% from about 0.26 on). This is one part of the list.
# Target: T1, Cin5 (UniProt P40917)
# T1 sequence: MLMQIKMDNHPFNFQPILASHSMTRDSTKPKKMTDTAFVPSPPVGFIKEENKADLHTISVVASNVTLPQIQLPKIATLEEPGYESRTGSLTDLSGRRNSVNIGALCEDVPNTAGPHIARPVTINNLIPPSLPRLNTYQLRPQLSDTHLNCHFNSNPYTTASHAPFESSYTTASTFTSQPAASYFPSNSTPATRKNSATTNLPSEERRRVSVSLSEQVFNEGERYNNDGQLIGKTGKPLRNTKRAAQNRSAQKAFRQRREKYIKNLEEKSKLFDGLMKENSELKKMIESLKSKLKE
# Assay: PBM E-score (8-mer binding enrichment) (E-score (-0.5 to 0.5)); higher = stronger / more preferred TF binding
# Settings: protein concentration: 100 nM; construct: GST-full length
# Procedure, shortened: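 Bound GST-tagged yeast transcription factors, applied at about 100-200 nM to double-stranded universal all-10-mer Agilent arrays, were detected with fluorescent anti-GST. Scans were normalised with masliner. A modified Wilcoxon-Mann-Whitney statistic, the E-score, was assigned to each ungapped eight-base word pooled with its reverse complement by the Universal PBM Analysis Suite.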
row,Sequence,PBM E-score
1,GTATCTAA,0.153
2,ATAATCGG,0.291
3,ATCTGATG,0.0461
4,ATACCATC,0.175
5,CCTTGTTA,-0.0571
6,GCGGAAAC,0.0316
7,AGTCGTTA,-0.031
8,ACGGTGTA,0.0405
9,CGTCCCCC,-0.414
10,GCGCACAA,0.115
11,AAGAATAT,0.0301
12,CTAGTTGC,0.00128
13,GAGCGATA,-0.054
14,ACAGTGCG,-0.0585
15,ACTCCTCG,-0.0384
16,AACCGGAT,0.207
17,ATGTTCCG,0.115
18,GATCATCC,-0.0259
19,CCCGCACC,-0.0467
20,ACAATTAG,-0.0153
21,AGTGACGA,-0.0175
22,AGAGACAT,0.0523
23,CACGTCCG,-0.149
24,AGAGTTTA,0.11
25,GGGGTTAA,-0.0418

row,Sequence,PBM E-score
1,CGGACGGA,-0.116
2,ACCAATCC,0.135
3,CCTTGAAC,-0.108
4,GACACTGA,0.0297
5,AAACTGGT,0.0256
6,GTAGCACA,-0.0233
7,GAGTGTAC,-0.109
8,CTCAAATA,0.0684
9,GGTAAGAC,-0.0686
10,AGCTGGAT,0.0213
11,CTTATACA,0.0656
12,CTGATTTA,0.0451
13,ACAAGGCC,-0.172
14,ATCATGGG,-0.0805
15,AGCGTACA,-0.0781
16,CCCCCGAG,-0.288
17,AGGCCCGG,-0.367
18,AGAAGTTA,0.0742
19,CACAAGCA,-0.045
20,GGGCAACA,0.0928
21,ATTCAAGG,-0.127
22,AACTGAGA,0.047
23,GATGATAA,0.184
24,CCCAATCG,0.0686
25,ACCAGCGT,-0.157

# Look-ups from the list:
# For PBM E-score, ATTCAAGG reads -0.127
# For PBM E-score, GGTAAGAC reads -0.0686
# For PBM E-score, GGGCAACA reads 0.0928
# For PBM E-score, GACACTGA reads 0.0297
# For PBM E-score, GAGTGTAC reads -0.109

# Next part.

row,Sequence,PBM E-score
1,ATACTAGG,0.105
2,AAAAGGTG,-0.0654
3,AAGGGCCC,-0.124
4,ATCACGCG,0.137
5,TAGCACCA,0.0184
6,GCGAGTCA,-0.164
7,CGCAACTC,0.103
8,AGGTTAGG,0.0566
9,AACAAAAA,0.209
10,ACCCAGGT,-0.31
11,GAACGCAA,0.0513
12,ACGGAAAT,0.305
13,CTTGCGAA,0.159
14,ACTGCGTC,-0.141
15,ACTCGTTC,-0.11
16,ATCGTCGG,-0.11
17,CTTGCATC,-0.012
18,ATGCCGCC,-0.079
19,CTAATAAC,0.133
20,AGTATAGG,-0.0146
21,CATGCAAC,0.152
22,AAAAGACC,-0.124
23,CCAGCGAC,-0.209
24,ACTCTTTA,-0.147
25,AATGCGTA,0.0514

row,Sequence,PBM E-score
1,GTGCGTGA,-0.00123
2,AGCGACTA,0.0063
3,CTCGCGCC,0.0349
4,CAAGGCTA,-0.0546
5,ACATCCTA,0.112
6,ATCCGGGC,-0.0665
7,AATCCCCG,0.00103
8,GTTCGATA,0.181
9,TAAGTCGA,0.0638
10,AGGCCCCC,-0.445
11,ACGTGAGA,-0.0704
12,CTGGATAA,-0.0469
13,ACTTATGA,0.139
14,GCTTTTTA,0.0638
15,ACCTTGGA,-0.0833
16,AGAGAGTG,-0.0886
17,AAAGGTCC,-0.216
18,CTAGTGTC,-0.0545
19,GTTCTCGA,-0.0139
20,AGGACGTG,-0.114
21,AATTAATT,0.0929
22,AGTTCTAA,-0.0624
23,ACCACGCA,-0.0742
24,CATACGCC,-0.0108
25,AGTGACTC,-0.11

row,Sequence,PBM E-score
1,GAGTTGGC,-0.0875
2,AGTAAGGC,0.0535
3,CCGGAAGA,-0.00221
4,AACCGACG,0.167
5,AAACCATC,0.0979
6,CCCCAATA,-0.028
7,CGTTGATA,0.112
8,GGGCCAAA,-0.1
9,ATTCAATC,0.193
10,GTTCCAGA,-0.0248
11,GCAGCAGC,-0.14
12,ACGACGCG,-0.0135
13,ACGTACAG,-0.0203
14,CACTGTGG,-0.0807
15,TAGACTAA,-0.0981
16,AGGAGATG,-0.0452
17,GCACATCA,0.142
18,GAAGGTCC,-0.111
19,GGTCAATA,0.169
20,ATGGTTCG,0.0872
21,CGATGGGA,0.0109
22,CCAGGGAA,-0.16
23,GTGTCACA,0.0459
24,TGGGTTAA,-0.12
25,ACGTTACC,-0.00667

row,Sequence,PBM E-score
1,ACACCTGG,-0.205
2,ATTTGCCA,-0.152
3,AGATAACT,0.159
4,GCGGATCA,-0.00769
5,TCTCACCA,-0.0168
6,CATATGCC,0.0685
7,GGTGCGTA,-0.205
8,AAAATTTG,0.0318
9,AGCGCTCC,-0.134
10,GGAGCACA,0.0111
11,ATGGTGTA,0.125
12,CCACAGCA,-0.0249
13,CATCTTGC,0.0581
14,ACCGCAAT,0.12
15,AACACGCG,-0.113
16,AGCGTAAA,0.122
17,CAAAAATC,0.0297
18,ATGCTAAA,0.0838
19,GTAACCGA,0.0434
20,ATGAAGTG,0.19
21,CTGAGAGA,-0.266
22,ATCAGTGC,0.0756
23,AAGCTATC,0.0613
24,AAAAGCGT,-0.0115
25,CAGGAACG,-0.0351

# Part of the list above, with tabs.
row	Sequence	PBM E-score
18	ATGCTAAA	0.0838
19	GTAACCGA	0.0434

# Carrying on:

row,Sequence,PBM E-score
1,ATGTACGA,0.192
2,GTAATTCA,0.142
3,GCCATGAC,-0.209
4,ACGGGTAG,-0.187
5,CGACAGGC,-0.186
6,ACCTCCAG,-0.181
7,AAAGTGCC,-0.174
8,CATTGTTC,0.121
9,GCTATTGA,0.00377
10,AATAGCCG,-0.0749
11,ACTTCATA,0.169
12,CACGGATA,0.22
13,ACAGTGCA,0.102
14,ACACATAT,0.103
15,CACTAAGG,-0.124
16,CTGAGGTA,0.168
17,GCGTGATA,0.0149
18,CAATGACC,-0.172
19,GCGTGTTA,-0.0317
20,CCACTTTA,0.159
21,CCCTAACG,-0.164
22,CCAAATTA,0.187
